Values of other authors as cited in patent US6448252B1, “Treatment of equine protozoal myeloencephalitis” (IDEXX Pharmaceuticals, Inc., priority 1996, dated 2002).
At least one compound was matched to its structure with a doubt left.

System: Plasmodium berghei yoelii
Conditions: rodent malaria; cited from earlier work

CCc1nc(N)nc(N)c1-c1ccc(Cl)cc1 [pyrimethamine]
causal prophylactic activity: causal prophylactic activity
